Measurements reported in PubChem BioAssay AID1259308 (NCATS, 2017)
The whole screen tested about 59,000 reagents; this is an unselected part. About 1,510 of them (2.6%) were called active. 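Calls use total luciferase alone and ignore viability, so some active siRNAs may act by altering cell number.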 The numbers tell different reagents against one gene apart.

Purpose: 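Candidate targets for better recombinant protein yield in mammalian cells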 (primary screen)
Cell system: human HEK293 embryonic kidney cells stably expressing firefly luciferase (HEK-CMV-Luc2-Hygro)
Reagent: single siRNA against human genes, 0.8 pmol siRNA per well
Timing: 72 h
Measurement: 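Reporter luminescence and viable-cell signal on separate replicate plates, given as percent of non-targeting control and median/MAD z-scores, plus per-cell luciferase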
Direction: total luciferase, z-score and total luciferase, % of control: higher = more reporter protein produced; luciferase per cell, z-score: higher = more reporter output per viable cell; viable cells, % of control: higher = more viable cells
Hit rule: 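An siRNA counts as active if its total luciferase robust z-score exceeds 3; genes with two or more such siRNAs out of three were retested with fresh siRNAs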
Meaning of the calls: active = raised luciferase; inactive = no rise

| gene | reagent no. | total luciferase, z-score | total luciferase, % of control | luciferase per cell, z-score | viable cells, % of control | activity call |
| --- | --- | --- | --- | --- | --- | --- |
| B4GALNT3 (beta-1,4-N-acetyl-galactosaminyltransferase 3) | 1 | -0.243 | 77 | 0.447 | 76.5 | inactive |
| B4GALNT3 (beta-1,4-N-acetyl-galactosaminyltransferase 3) | 2 | -1.12 | 59.7 | -0.888 | 84.2 | inactive |
| B4GALNT3 (beta-1,4-N-acetyl-galactosaminyltransferase 3) | 3 | 3.61 | 154 | 1.61 | 112 | active |
| RAB4A (RAB4A, member RAS oncogene family) | 1 | 0.933 | 100 | 0.757 | 92 | inactive |
| RAB4A (RAB4A, member RAS oncogene family) | 2 | -0.724 | 67.5 | -0.829 | 93.8 | inactive |
| RAB4A (RAB4A, member RAS oncogene family) | 3 | -0.586 | 70.2 | -0.714 | 94.7 | inactive |
| LIME1 (Lck interacting transmembrane adaptor 1) | 1 | 0.443 | 90.7 | 1.41 | 69.8 | inactive |
| LIME1 (Lck interacting transmembrane adaptor 1) | 2 | -0.488 | 72.2 | -0.16 | 84.1 | inactive |
| LIME1 (Lck interacting transmembrane adaptor 1) | 3 | -0.367 | 74.6 | 0.201 | 79.1 | inactive |
| KANK1 (KN motif and ankyrin repeat domains 1) | 1 | -0.364 | 74.7 | -0.106 | 85.8 | inactive |
| KANK1 (KN motif and ankyrin repeat domains 1) | 2 | -0.833 | 65.3 | -0.733 | 88.5 | inactive |
| KANK1 (KN motif and ankyrin repeat domains 1) | 3 | -1.62 | 49.6 | -2.29 | 101 | inactive |
| VPS45 (vacuolar protein sorting 45 homolog) | 1 | -0.183 | 78.2 | -0.1 | 89.8 | inactive |
| VPS45 (vacuolar protein sorting 45 homolog) | 2 | 0.601 | 93.8 | -0.199 | 111 | inactive |
| VPS45 (vacuolar protein sorting 45 homolog) | 3 | -0.2 | 77.9 | -0.263 | 93.3 | inactive |
| DNAJB3P (DnaJ heat shock protein family (Hsp40) member B3, pseudogene) | 1 | -0.22 | 77.5 | -0.162 | 90.4 | inactive |
| DNAJB3P (DnaJ heat shock protein family (Hsp40) member B3, pseudogene) | 2 | 0.105 | 84 | -0.0705 | 95.6 | inactive |
| DNAJB3P (DnaJ heat shock protein family (Hsp40) member B3, pseudogene) | 3 | -1.71 | 47.9 | -2.37 | 99.7 | inactive |
| POU3F4 (POU class 3 homeobox 4) | 1 | 2.53 | 132 | 4.19 | 49.1 | inactive |
| POU3F4 (POU class 3 homeobox 4) | 2 | 0.0802 | 83.5 | 0.0109 | 93 | inactive |
| POU3F4 (POU class 3 homeobox 4) | 3 | 0.0463 | 82.8 | 0.333 | 84.8 | inactive |
| HCN2 | 1 | 1.32 | 108 | 0.963 | 93.7 | inactive |
| HCN2 | 2 | -0.785 | 66.3 | -0.715 | 89.4 | inactive |
| HCN2 | 3 | -0.683 | 68.3 | -0.929 | 97.5 | inactive |
| KRTAP8-1 (keratin associated protein 8-1) | 1 | 1.63 | 114 | 0.716 | 106 | inactive |
| KRTAP8-1 (keratin associated protein 8-1) | 2 | -0.419 | 73.6 | -1.35 | 117 | inactive |
| KRTAP8-1 (keratin associated protein 8-1) | 3 | -1.59 | 50.2 | -0.933 | 71.7 | inactive |
| UBR2 (ubiquitin protein ligase E3 component n-recognin 2) | 1 | 0.091 | 83.7 | 0.146 | 90 | inactive |
| UBR2 (ubiquitin protein ligase E3 component n-recognin 2) | 2 | -0.0394 | 81.1 | -0.503 | 103 | inactive |
| UBR2 (ubiquitin protein ligase E3 component n-recognin 2) | 3 | 0.546 | 92.8 | -0.175 | 109 | inactive |
| DPCD (deleted in primary ciliary dyskinesia homolog (mouse)) | 1 | -1.17 | 58.6 | -1.16 | 88.7 | inactive |
| DPCD (deleted in primary ciliary dyskinesia homolog (mouse)) | 2 | 0.201 | 85.9 | -0.0431 | 97.1 | inactive |
| DPCD (deleted in primary ciliary dyskinesia homolog (mouse)) | 3 | 0.256 | 87 | 0.256 | 90.9 | inactive |
| CCL5 (C-C motif chemokine ligand 5) | 1 | -0.728 | 67.4 | -0.778 | 92.4 | inactive |
| CCL5 (C-C motif chemokine ligand 5) | 2 | 0.223 | 86.3 | 0.129 | 93.2 | inactive |
| CCL5 (C-C motif chemokine ligand 5) | 3 | -2.5 | 32.1 | -2.58 | 70.8 | inactive |
| OVGP1 (oviductal glycoprotein 1) | 1 | -0.565 | 70.6 | -0.158 | 82.3 | inactive |
| OVGP1 (oviductal glycoprotein 1) | 2 | 0.0924 | 83.7 | 0.622 | 79.4 | inactive |
| OVGP1 (oviductal glycoprotein 1) | 3 | -1.55 | 51.1 | -1.12 | 76.6 | inactive |
| FNDC5 (fibronectin type III domain containing 5) | 1 | -2.14 | 39.2 | -1.66 | 67.8 | inactive |
| FNDC5 (fibronectin type III domain containing 5) | 2 | -0.326 | 75.4 | 0.345 | 76.9 | inactive |
| FNDC5 (fibronectin type III domain containing 5) | 3 | 0.317 | 88.2 | 0.789 | 80.1 | inactive |

Copied from the listing (8 entries):
| gene | reagent no. | total luciferase, z-score | total luciferase, % of control | luciferase per cell, z-score | viable cells, % of control | activity call |
| --- | --- | --- | --- | --- | --- | --- |
| CCL5 (C-C motif chemokine ligand 5) | 1 | -0.728 | 67.4 | -0.778 | 92.4 | inactive |
| CCL5 (C-C motif chemokine ligand 5) | 2 | 0.223 | 86.3 | 0.129 | 93.2 | inactive |
| CCL5 (C-C motif chemokine ligand 5) | 3 | -2.5 | 32.1 | -2.58 | 70.8 | inactive |
| OVGP1 (oviductal glycoprotein 1) | 1 | -0.565 | 70.6 | -0.158 | 82.3 | inactive |
| OVGP1 (oviductal glycoprotein 1) | 2 | 0.0924 | 83.7 | 0.622 | 79.4 | inactive |
| OVGP1 (oviductal glycoprotein 1) | 3 | -1.55 | 51.1 | -1.12 | 76.6 | inactive |
| FNDC5 (fibronectin type III domain containing 5) | 1 | -2.14 | 39.2 | -1.66 | 67.8 | inactive |
| FNDC5 (fibronectin type III domain containing 5) | 2 | -0.326 | 75.4 | 0.345 | 76.9 | inactive |

Next records follow.
| gene | reagent no. | total luciferase, z-score | total luciferase, % of control | luciferase per cell, z-score | viable cells, % of control | activity call |
| --- | --- | --- | --- | --- | --- | --- |
| POLR2M (RNA polymerase II subunit M) | 1 | 0.11 | 84.1 | -0.202 | 99.1 | inactive |
| POLR2M (RNA polymerase II subunit M) | 2 | 0.868 | 99.2 | 0.718 | 91.7 | inactive |
| POLR2M (RNA polymerase II subunit M) | 3 | 2.01 | 122 | 1.48 | 92.2 | inactive |
| HLX (H2.0 like homeobox) | 1 | -2.11 | 39.8 | -0.816 | 55.2 | inactive |
| HLX (H2.0 like homeobox) | 2 | -0.551 | 70.9 | -0.296 | 85.7 | inactive |
| HLX (H2.0 like homeobox) | 3 | 0.504 | 91.9 | -0.236 | 109 | inactive |
| ABI3BP (ABI family member 3 binding protein) | 1 | -0.865 | 64.7 | -0.961 | 93.1 | inactive |
| ABI3BP (ABI family member 3 binding protein) | 2 | 0.416 | 90.2 | 0.361 | 91.6 | inactive |
| ABI3BP (ABI family member 3 binding protein) | 3 | -0.612 | 69.7 | -0.902 | 98.8 | inactive |
| LONRF2 (LON peptidase N-terminal domain and ring finger 2) | 1 | 2.06 | 123 | 2.15 | 77.9 | inactive |
| LONRF2 (LON peptidase N-terminal domain and ring finger 2) | 2 | -2.09 | 40.3 | -1.39 | 65 | inactive |
| LONRF2 (LON peptidase N-terminal domain and ring finger 2) | 3 | -0.583 | 70.3 | -0.307 | 85.2 | inactive |
| DOT1L (DOT1 like histone lysine methyltransferase) | 1 | -0.801 | 66 | -0.287 | 79.5 | inactive |
| DOT1L (DOT1 like histone lysine methyltransferase) | 2 | -0.723 | 67.5 | -1.23 | 104 | inactive |
| DOT1L (DOT1 like histone lysine methyltransferase) | 3 | -2.53 | 31.5 | -4.04 | 102 | inactive |
| SIKE1 (suppressor of IKBKE 1) | 1 | -1.42 | 53.7 | -0.776 | 73.5 | inactive |
| SIKE1 (suppressor of IKBKE 1) | 2 | -0.26 | 76.7 | -0.595 | 100 | inactive |
| SIKE1 (suppressor of IKBKE 1) | 3 | 4.7 | 175 | 3.28 | 82.7 | active |
| LCN8 (lipocalin 8) | 1 | -0.254 | 76.8 | -0.145 | 89.2 | inactive |
| LCN8 (lipocalin 8) | 2 | -0.608 | 69.8 | -0.427 | 87.3 | inactive |
| LCN8 (lipocalin 8) | 3 | -0.215 | 77.6 | 0.165 | 83 | inactive |
| GARIN1B (golgi associated RAB2 interactor 1B) | 1 | 0.672 | 95.3 | 0.132 | 103 | inactive |
| GARIN1B (golgi associated RAB2 interactor 1B) | 2 | -0.0254 | 81.4 | -0.289 | 98.1 | inactive |
| GARIN1B (golgi associated RAB2 interactor 1B) | 3 | 0.386 | 89.6 | 0.117 | 97.1 | inactive |
| VSTM5 (V-set and transmembrane domain containing 5) | 1 | 0.0949 | 83.8 | 0 | 93.6 | inactive |
| VSTM5 (V-set and transmembrane domain containing 5) | 2 | 0.773 | 97.3 | 0.348 | 99.2 | inactive |
| VSTM5 (V-set and transmembrane domain containing 5) | 3 | 0.419 | 90.2 | -0.0027 | 101 | inactive |
| CTNNA2 (catenin alpha 2) | 1 | -2.12 | 39.8 | -0.515 | 50.9 | inactive |
| CTNNA2 (catenin alpha 2) | 2 | 0.247 | 86.8 | 0.871 | 77.1 | inactive |
| CTNNA2 (catenin alpha 2) | 3 | -0.382 | 74.3 | -0.838 | 103 | inactive |
| TCEAL4 (transcription elongation factor A like 4) | 1 | 1.13 | 104 | 0.549 | 101 | inactive |
| TCEAL4 (transcription elongation factor A like 4) | 2 | 1.27 | 107 | 1.62 | 78.2 | inactive |
| TCEAL4 (transcription elongation factor A like 4) | 3 | 1.57 | 113 | 1.76 | 79.6 | inactive |
